No constants are given. Whether binding was seen depends on the method and setting. Binding seen in cells or lysates may run through a third protein. Some entries that bind do so weakly or less than the wild type. Tags and fused reporters may be left off the sequences shown.
Target: T1, Flag-MARCH8 (human membrane-associated RING-CH 8) (human) (UniProt Q5T0T0)
T1 sequence: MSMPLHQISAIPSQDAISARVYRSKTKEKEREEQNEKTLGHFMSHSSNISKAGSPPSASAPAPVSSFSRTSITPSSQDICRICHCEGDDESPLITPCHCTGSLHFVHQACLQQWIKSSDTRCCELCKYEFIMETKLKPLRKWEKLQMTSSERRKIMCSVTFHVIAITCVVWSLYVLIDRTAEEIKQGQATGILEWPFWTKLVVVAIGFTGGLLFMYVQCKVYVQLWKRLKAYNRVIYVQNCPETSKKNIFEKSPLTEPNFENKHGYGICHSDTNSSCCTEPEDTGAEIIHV
Assay: co-IP

Chains of the proteins cited; added tags and fusions are not shown.
UniProt P05780: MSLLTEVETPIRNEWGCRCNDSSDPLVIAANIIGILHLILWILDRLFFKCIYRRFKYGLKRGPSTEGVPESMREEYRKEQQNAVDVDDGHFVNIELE

In the case of “Influenza A virus M2 protein (from UniProt P05780 1-97)”, the binding is reported as “binds”.

From article PMC8292393
